Laboratory results: paper PMC11436757, “BRCA2 stabilises RAD51 and DMC1 nucleoprotein filaments through a conserved interaction mode” (Nature Communications, 2024)

Sequences of proteins named here, by UniProt entry; tags and fusion partners are left off.
UniProt Q06609, whole entry L180E: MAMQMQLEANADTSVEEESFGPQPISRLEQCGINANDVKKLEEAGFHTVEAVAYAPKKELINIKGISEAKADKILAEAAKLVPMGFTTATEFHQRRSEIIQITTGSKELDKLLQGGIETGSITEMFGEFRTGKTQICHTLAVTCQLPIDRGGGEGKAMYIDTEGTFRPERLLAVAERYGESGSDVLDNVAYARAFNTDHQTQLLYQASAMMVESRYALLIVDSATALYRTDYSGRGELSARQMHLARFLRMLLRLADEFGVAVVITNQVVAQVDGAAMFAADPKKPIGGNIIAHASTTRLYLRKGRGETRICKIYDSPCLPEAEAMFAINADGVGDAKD
UniProt Q06609, whole entry: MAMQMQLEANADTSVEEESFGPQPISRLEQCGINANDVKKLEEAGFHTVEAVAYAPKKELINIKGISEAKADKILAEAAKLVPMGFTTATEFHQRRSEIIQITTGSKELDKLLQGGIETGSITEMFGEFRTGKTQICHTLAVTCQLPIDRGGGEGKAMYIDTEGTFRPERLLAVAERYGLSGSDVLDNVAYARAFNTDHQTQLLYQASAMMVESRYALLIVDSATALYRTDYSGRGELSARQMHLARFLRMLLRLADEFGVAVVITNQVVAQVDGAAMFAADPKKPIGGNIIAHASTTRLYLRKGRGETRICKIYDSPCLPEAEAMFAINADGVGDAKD

Tests used:
DMC1 + BRCA2 Ex14-Tr [1] = test: EMSA super-shift; details: TEA + KCl, ATP, Mg2+, text: failed to super-shift, legend: largely eliminated; DMC1: 25 mM TEA (triethanolamine) pH 7.5, 200 mM KCl, 1 mM ATP, 2 mM MgCl2, 0.1 mg/ml BSA, 2 mM DTT, or 50 mM TAE pH 7.5, 2 mM ATP, 2 mM MgCl2, 2 mM DTT; recombinant protein; protein details: His6 removed by TEV; label: 5'-FAM; single-stranded DNA
DMC1 (Homo sapiens) [2] = biological target: T1, DMC1 (Homo sapiens) (UniProt Q14565); test: EMSA; details: DMC1: 25 mM TEA (triethanolamine) pH 7.5, 200 mM KCl, 1 mM ATP, 2 mM MgCl2, 0.1 mg/ml BSA, 2 mM DTT, or 50 mM TAE pH 7.5, 2 mM ATP, 2 mM MgCl2, 2 mM DTT, recombinant protein, residues 1-340, protein details: His6 removed by TEV, label: 5'-FAM, single-stranded DNA
T1 sequence (looked up): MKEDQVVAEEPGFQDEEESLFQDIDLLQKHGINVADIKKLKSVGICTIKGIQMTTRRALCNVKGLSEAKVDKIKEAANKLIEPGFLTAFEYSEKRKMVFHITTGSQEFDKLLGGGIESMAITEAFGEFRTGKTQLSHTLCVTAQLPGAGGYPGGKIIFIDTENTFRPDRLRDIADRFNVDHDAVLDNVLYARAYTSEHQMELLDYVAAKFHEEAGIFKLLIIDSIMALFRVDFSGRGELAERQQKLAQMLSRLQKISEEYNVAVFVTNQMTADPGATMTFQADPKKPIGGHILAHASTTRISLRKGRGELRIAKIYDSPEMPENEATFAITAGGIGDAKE

RAD51 L180E [3] = biological target: RAD51 L180E (UniProt Q06609); test: EMSA; details: 2 mM ATP, 0.5 mM Mg2+, no BRC4, DMC1: 25 mM TEA (triethanolamine) pH 7.5, 200 mM KCl, 1 mM ATP, 2 mM MgCl2, 0.1 mg/ml BSA, 2 mM DTT, or 50 mM TAE pH 7.5, 2 mM ATP, 2 mM MgCl2, 2 mM DTT, recombinant protein, residues 1-339, single-stranded DNA
RAD51 [4] = biological target: RAD51 (UniProt Q06609); test: EMSA; details: 2 mM ATP, 0.5 mM Mg2+, no BRC4, DMC1: 25 mM TEA (triethanolamine) pH 7.5, 200 mM KCl, 1 mM ATP, 2 mM MgCl2, 0.1 mg/ml BSA, 2 mM DTT, or 50 mM TAE pH 7.5, 2 mM ATP, 2 mM MgCl2, 2 mM DTT, recombinant protein, residues 1-339, single-stranded DNA
DMC1 (Homo sapiens) [5] = biological target: T1, DMC1 (Homo sapiens); test: EMSA, BRC4 protection; details: TEA + KCl, Ex14-AAA + BRC4, protection largely or completely abrogated; DMC1: 25 mM TEA (triethanolamine) pH 7.5, 200 mM KCl, 1 mM ATP, 2 mM MgCl2, 0.1 mg/ml BSA, 2 mM DTT, or 50 mM TAE pH 7.5, 2 mM ATP, 2 mM MgCl2, 2 mM DTT; recombinant protein; residues 1-340; protein details: His6 removed by TEV; label: 5'-FAM; single-stranded DNA
RAD51 L180E [6] = biological target: RAD51 L180E (UniProt Q06609); test: EMSA, BRC4 protection; details: DMC1: 25 mM TEA (triethanolamine) pH 7.5, 200 mM KCl, 1 mM ATP, 2 mM MgCl2, 0.1 mg/ml BSA, 2 mM DTT, or 50 mM TAE pH 7.5, 2 mM ATP, 2 mM MgCl2, 2 mM DTT, recombinant protein, residues 1-339, single-stranded DNA
DMC1 + BRCA2 Ex14-Tr [7] = test: EMSA, BRC4 protection; details: TEA + KCl, Ex14-Tr + BRC4, protection mostly lost; DMC1: 25 mM TEA (triethanolamine) pH 7.5, 200 mM KCl, 1 mM ATP, 2 mM MgCl2, 0.1 mg/ml BSA, 2 mM DTT, or 50 mM TAE pH 7.5, 2 mM ATP, 2 mM MgCl2, 2 mM DTT; recombinant protein; protein details: His6 removed by TEV; label: 5'-FAM; single-stranded DNA
RAD51 [8] = biological target: RAD51 (UniProt Q06609); test: EMSA, BRC4 protection; details: DMC1: 25 mM TEA (triethanolamine) pH 7.5, 200 mM KCl, 1 mM ATP, 2 mM MgCl2, 0.1 mg/ml BSA, 2 mM DTT, or 50 mM TAE pH 7.5, 2 mM ATP, 2 mM MgCl2, 2 mM DTT, recombinant protein, residues 1-339, single-stranded DNA
DMC1 (Homo sapiens) [9] = biological target: T1, DMC1 (Homo sapiens); test: EMSA, disruption by BRC4; details: TEA + KCl, 5-fold excess BRC4 (1519-1551), completely disrupted; DMC1: 25 mM TEA (triethanolamine) pH 7.5, 200 mM KCl, 1 mM ATP, 2 mM MgCl2, 0.1 mg/ml BSA, 2 mM DTT, or 50 mM TAE pH 7.5, 2 mM ATP, 2 mM MgCl2, 2 mM DTT; recombinant protein; residues 1-340; protein details: His6 removed by TEV; label: 5'-FAM; single-stranded DNA
RAD51 L180E [10] = biological target: RAD51 L180E (UniProt Q06609); test: EMSA, disruption by BRC4; details: BRC4, similar disruption to wild type; DMC1: 25 mM TEA (triethanolamine) pH 7.5, 200 mM KCl, 1 mM ATP, 2 mM MgCl2, 0.1 mg/ml BSA, 2 mM DTT, or 50 mM TAE pH 7.5, 2 mM ATP, 2 mM MgCl2, 2 mM DTT; recombinant protein; residues 1-339; label: 5'-FAM; single-stranded DNA
RAD51 [11] = biological target: RAD51 (UniProt Q06609); test: EMSA, disruption by BRC4; details: DMC1: 25 mM TEA (triethanolamine) pH 7.5, 200 mM KCl, 1 mM ATP, 2 mM MgCl2, 0.1 mg/ml BSA, 2 mM DTT, or 50 mM TAE pH 7.5, 2 mM ATP, 2 mM MgCl2, 2 mM DTT, recombinant protein, residues 1-339, single-stranded DNA
[12] = label: none (SYBR Gold post-stain)

Sequence | binding result (DMC1 + BRCA2 Ex14-Tr [1]) | binding result (DMC1 (Homo sapiens) [2]; TAE + Ex14-AAA, largely failed to stimulate, some at high concentration) | binding result (DMC1 (Homo sapiens) [2]; TAE pH 7.5, 2 mM ATP, 2 mM Mg2+, incomplete at 3 nt per protomer) | binding result (RAD51 L180E [3]; 50 mM TEA, label: 5'-FAM) | binding result (RAD51 [4]; 50 mM TEA, label: 5'-FAM) | binding result (DMC1 (Homo sapiens) [5]) | binding result (RAD51 L180E [6]; Ex27 + BRC4, not protected, label: 5'-FAM) | binding result (DMC1 + BRCA2 Ex14-Tr [7]) | binding result (RAD51 [8]; Ex27-AAA (legend: Ex14-AAA, sites printed F3298A/P3300A/P3301A or F3308A/P3310A/P3311A) + BRC4, not protected, label: 5'-FAM) | binding result (DMC1 (Homo sapiens) [9]) | binding result (RAD51 L180E [10]) | binding result (RAD51 [11]; equimolar BRC4 disrupts, label: 5'-FAM) | binding result (RAD51 L180E [3]; [12]) | binding result (RAD51 [4]; [12]) | binding result (RAD51 L180E [6]; Ex27 + BRC4, protection abrogated, label: none (SYBR Gold post-stain)) | binding result (RAD51 [8]; Ex27-AAA + BRC4, protection abrogated, label: none (SYBR Gold post-stain)) | binding result (RAD51 [11]; stoichiometric excess BRC4 disrupts, label: none (SYBR Gold post-stain))
AATTCTCATTTTACTTACCGGACGCTATTAGCAGTGGGTGAGCAAAAACAGGAAGGCAAAATGCCGCAAAAAAGGGAATAAGGGCGACACGGAAATGTTG [100-nt random-sequence ssDNA] | binds more weakly | binds more weakly | binds more weakly | binds | binds | binds more weakly | binds more weakly | binds more weakly | binds more weakly | no binding | binds more weakly | binds more weakly | – | – | – | – | –
TTTTTTTTTTTTTTTTTTTTTTTTTTTTTTTTTTTTTTTTTTTTTTTTTTTTTTTTTTTTTTTTTTTTTTTTTTTTTTTTTTTTTTTTTTTTTTTTTTTT [100-nt poly(dT)] | – | – | – | – | – | – | – | – | – | – | – | – | binds | binds | binds more weakly | binds more weakly | binds more weakly

For some assays here: No signal at the amounts used counts as a negative. For some assays here: Where a protein sequence is shown, tags need not be part of it. For some assays here: For at least one entry, the source does not settle the construct or the ends of the probe. For some assays here: The comparison behind a weaker result is the experiment's own reference, which may not be listed here. For some assays here: At least one verdict rests on a figure or table, not on a statement of the authors.
